This assay can be described thus: qHTS Assay for Lipid Storage Modulators in Drosophila S3 Cells.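 As to cell number change: cells counted by Cell Tracker Red CMTPX staining in the red channel.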 The settings on record: BODIPY lipid droplet fluorescence, 18-24 h; for cell number change: measured here: cell count max response, cells fed with added oleic acid. The gist of the method: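 Drosophila S3 cells got compounds at several concentrations plus oleic acid (400 uM solution). Laser-scanning cytometry with 488 nm excitation read lipid droplets at 500-530 nm and cells at 575-640 nm. Percent activity was relative to 20 uM Triacsin C.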
A general note: Quantitative high-throughput screening tests each substance at several concentrations.

[1] abbreviates: measured here: lipid fluorescence (Fed channel) AC50, cells fed with added oleic acid.
[2] abbreviates: measured here: cell number channel AC50, cells fed with added oleic acid.

The other results are listed elsewhere or left out. The main result of the screen is listed elsewhere. These columns were measured beside it and carry no call. Most of these compounds were active or inconclusive in the main read-out, so they are no random draw. Words in brackets tell the shape of the fitted curve; partial curves, single points and poor fits give uncertain potencies.

In general, AC50 refers to the concentration giving half of the maximal activity seen. Regarding `CC1(C)CC(=O)C/C(=N\NC(=S)NCc2ccccc2)C1`, the AC50 under setting [1] is 29.1 µM [rising, single point].
As for `COc1ccccc1NC(=O)Cn1cnc2c(cnn2-c2ccc(C)c(C)c2)c1=O`, the cell number change was -27.3%. Moreover, under setting [1], the AC50 was 6.51 µM [falling, full curve, poor fit].
As to `CS(=O)(=O)c1ccc([C@@H](O)[C@@H](CO)NC(=O)C(Cl)Cl)cc1`, the cell number change turned out to be 5.05%. Besides, the AC50 under setting [1] was 6.51 µM [rising, single point].
Consider `COc1ccc(CCNC(=O)CN2CCCc3ccccc32)cc1OC`, for which the cell number change is -29.7%. The AC50 under setting [1] was 23.1 µM [falling, single point].
For the compound `Cc1cccc(N2CCN(C(=O)CSc3ccc4c(c3)OCCO4)CC2)c1C`, the cell number change is -14.9%. Further, the AC50 under setting [1] was 6.51 µM [falling, single point].
`C=C1CCC(N(O)c2cc(C)on2)C(=C)CCC2C1CC2(C)C` (stereo unspecified): the cell number change stood at 12%. Also, the AC50 under setting [2] was 1.16 µM [falling, single point].
Consider `N/C(=N\OC(=O)CC1CCCCC1)c1cccc(Br)c1`, for which the cell number change was -8.81%. Besides, the half-maximal activity concentration (AC50) under setting [1] is 4.61 µM [falling, single point].
Regarding `COC(=O)c1cc2c(s1)-c1ccccc1OC2`, the cell number change is -4.83%.
On to `CCOC(=O)C1(CC2CC2)CCN(Cc2cn[nH]c2-c2ccccc2)CC1`, for which the cell number change is 2.49%. In addition, the concentration at half-maximal activity (AC50) under setting [1] was 0.58 µM [falling, single point].
For `CC(C)c1ccc(OCC(O)Cn2cnc3ccccc32)cc1` (stereo unspecified), the cell number change is -42.3%. In addition, the concentration at half-maximal activity (AC50) under setting [2] is 29.1 µM [falling, single point]. In addition, the half-maximal activity concentration (AC50) under setting [1] is 32.6 µM [falling, single point].
As to `O=C(COC(=O)c1ccc(Br)o1)NC1CCCc2ccccc21` (stereo unspecified), the cell number change was -2%. Further, under setting [2], the AC50 was 0.164 µM [falling, full curve, poor fit]. In addition, the AC50 under setting [1] was 29.1 µM [falling, single point].
On to `COc1cc(OC)c(C(=O)NCC(c2cccs2)N(C)C)cc1OC` (stereo unspecified), for which the AC50 under setting [1] is 6.51 µM [rising, single point].
With `CN1CCN(NC(=O)NC2CCCCC2)CC1`, the cell number change was determined as 18.3%. Also, the concentration at half-maximal activity (AC50) under setting [2] was 2.06 µM [rising, partial curve, poor fit].
For the compound `Cc1cc(/C=N/NC(=O)c2cc3ccccc3o2)c(C)n1C`, the cell number change is 19.7%. Besides, the concentration at half-maximal activity (AC50) under setting [1] was 0.103 µM [rising, partial curve, poor fit].
As to `COCCCNC(=S)NCCc1ccc(F)cc1`, the cell number change was -42.1%. Further, the AC50 under setting [2] was 0.92 µM [falling, full curve]. Moreover, the concentration at half-maximal activity (AC50) under setting [1] was 16.4 µM [falling, partial curve, poor fit].
For `Cc1ccc(C(=O)Nn2c(N)c(S(=O)(=O)c3ccc(C)cc3)c3nc4ccccc4nc32)cc1`, the AC50 under setting [1] is 0.58 µM [rising, single point].
In the case of `CS(=O)(=O)NCc1ccccc1Br`, the cell number change is 6.02%. Further, the concentration at half-maximal activity (AC50) under setting [1] was 29.1 µM [rising, single point].
As to `O=[N+]([O-])c1cccc(C(=S)N2CCN(c3ccccc3F)CC2)c1`, the cell number change worked out at 19%. Under setting [2], the AC50 is 0.206 µM [rising, full curve, poor fit]. For the same compound, the AC50 under setting [1] was 1.46 µM [rising, full curve].
In the case of `CCOc1ccc(N2C(=O)CN(O)C=C3N=c4ccccc4=C32)cc1`, the cell number change is -26.2%. Besides, the AC50 under setting [1] was 14.6 µM [falling, single point].
In the case of `CC(=O)c1cccc(NC(=O)CNC(=O)c2sc3ccccc3c2Cl)c1`, the cell number change is 11.2%. The concentration at half-maximal activity (AC50) under setting [1] was 0.092 µM [rising, full curve, poor fit].
In the case of `Cc1csc(NC(=O)C2CCCN(S(=O)(=O)c3cccnc3)C2)n1` (stereo unspecified), the cell number change is 5.42%.
As for `COc1cc(NC(=O)CNc2cccc(S(=O)(=O)N3CCOCC3)c2)cc(OC)c1`, the cell number change was 5.99%. Further, the AC50 under setting [1] was 20.6 µM [rising, single point].
As to `O=C(Nc1nnc(C(F)(F)F)s1)C1COc2ccccc2O1` (stereo unspecified), the cell number change worked out at 20.6%. Moreover, the AC50 under setting [1] was 20.6 µM [falling, single point].
With `Cc1ccc(OCc2n[nH]c(=S)n2C2CCCCC2)cc1`, the cell number change was -40.9%. Under setting [2], the AC50 is 29.1 µM [falling, single point].
As to `Cn1c(SCC(=O)c2ccc3c(c2)Cc2ccccc2-3)nnc1-c1cccc(N)c1`, the cell number change came to 1.65%. In addition, the AC50 under setting [2] is 1.03 µM [rising, full curve, poor fit].
`CCN(CC(=O)Nc1cc(OC)ccc1OC)Cc1nc2ccccc2c(=O)[nH]1`: the cell number change came to 30.3%.
For the compound `OCCN(CCO)CC(O)CN1c2ccccc2Sc2ccccc21` (stereo unspecified), the cell number change stood at 22.2%. Besides, the AC50 under setting [1] was 14.6 µM [falling, partial curve].
Take `O=C(COC(=O)CCC1CCCC1)Nc1ccc(F)cc1Cl`: the cell number change is -29.6%. The half-maximal activity concentration (AC50) under setting [2] is 0.92 µM [falling, full curve]. For the same compound, the AC50 under setting [1] was 0.92 µM [falling, full curve].
Regarding `CCOc1ccc(CNn2cnnc2)cc1`, the cell number change stood at 24.6%. Further, the half-maximal activity concentration (AC50) under setting [1] was 5.17 µM [rising, single point].
For the compound `CN(CC(O)CON=C1c2ccccc2-c2ccccc21)S(=O)(=O)c1ccc(Br)cc1` (stereo unspecified), the cell number change is -28.1%. The AC50 under setting [1] is 1.46 µM [falling, partial curve].
Turning to `O=[N+]([O-])c1ccc(Nc2c3ccccc3nc3ccccc23)cc1`, the cell number change is -5.57%.
`COc1ccc(OC)c(N/C(C)=C/C(=O)c2ccccc2)c1`: the cell number change is -33.3%. In addition, the AC50 under setting [1] is 0.13 µM [falling, partial curve, poor fit].
Consider `O=C1c2ccccc2C(=O)N1CC1c2ccccc2CCN1C(=O)N1CCOCC1` (stereo unspecified), for which the cell number change was 0.214%. Also, the AC50 under setting [1] is 6.51 µM [falling, single point].
For `O=S(=O)(c1ccccc1)c1nc(-c2ccco2)oc1NCc1ccco1`, the cell number change came to 120%. For the same compound, the half-maximal activity concentration (AC50) under setting [2] is 8.2 µM [rising, partial curve]. In addition, under setting [1], the AC50 was 9.2 µM [rising, partial curve].
`O=C(NN1C(=O)C2C3CCC(O3)C2C1=O)c1ccco1` (stereo unspecified): the cell number change was 22.7%. Further, the AC50 under setting [1] was 0.164 µM [falling, full curve, poor fit].
For `Nn1cnnc1N/N=C/c1cc([N+](=O)[O-])c(Cl)cc1Cl`, the cell number change was -19.5%. Moreover, the AC50 under setting [2] was 3.66 µM [rising, partial curve]. Further, under setting [1], the half-maximal activity concentration (AC50) is 29.1 µM [rising, single point].
For `NS(=O)(=O)c1cccc(NC(=O)c2ccccc2NS(=O)(=O)c2ccc(F)cc2)c1`, the cell number change came to 7.39%.
As for `Cc1ccc(NC(=O)CN(C)C(=O)Cn2cc(C(F)(F)F)cc(Cl)c2=O)cc1`, the cell number change came to 7.95%. Also, under setting [1], the AC50 was 0.146 µM [falling, full curve, poor fit].
Take `COC(=O)CCN1CCN(S(=O)(=O)c2ccccc2Br)CC1`: the cell number change was -8.17%.
As to `Cc1cccc(C2C3=C(CCCC3=O)N=C3c4ccccc4C(=O)C32)c1` (stereo unspecified), the cell number change was found to be 1.49%. The concentration at half-maximal activity (AC50) under setting [1] was 0.651 µM [rising, single point].
`CC(C)(CC(=O)O)CC(=O)N1CCN(c2cc(C(F)(F)F)nc3ccccc23)CC1`: the cell number change was -33.9%. Besides, the concentration at half-maximal activity (AC50) under setting [2] was 6.51 µM [falling, partial curve]. Besides, the AC50 under setting [1] is 7.31 µM [falling, partial curve].
On to `O=C(O)c1ccc(S(=O)(=O)Nc2ccc(F)c(Cl)c2)cc1`, for which the cell number change is -11.7%. In addition, under setting [1], the AC50 was 7.31 µM [falling, single point].
For `O=C(c1ccc([N+](=O)[O-])cc1)N1C=CC(C(F)(F)F)=NCC1`, the cell number change is -39.7%. Moreover, the AC50 under setting [2] is 32.6 µM [falling, single point]. Further, under setting [1], the AC50 was 29.1 µM [falling, single point].
`COc1ccc(-n2nnnc2Sc2ccc(S(=O)(=O)N3CCOCC3)cn2)cc1`: the cell number change was determined as 9.87%. The AC50 under setting [1] was 0.00461 µM [rising, full curve, poor fit].
Regarding `CCOC(=O)COc1nc(-c2ccco2)cc(-c2ccco2)c1C#N`, the cell number change came out at 16.6%. In addition, the concentration at half-maximal activity (AC50) under setting [2] is 0.0651 µM [rising, full curve, poor fit].
Take `CCOC(=O)c1nc2nc(-c3cccs3)cc(C(F)(F)F)n2n1`: the cell number change turned out to be 35.8%. Moreover, under setting [2], the AC50 is 10.3 µM [rising, partial curve]. Further, the AC50 under setting [1] was 0.366 µM [rising, full curve, poor fit].
For the compound `Cc1nc(Nc2ccc(S(N)(=O)=O)cc2)sc1-c1ccccc1`, the cell number change amounted to 10.5%.
On to `CCCc1nc(SCc2ccc(Cl)cc2Cl)n[nH]1`, for which the cell number change is -22.6%.
Turning to `N=C1C=CC=C2C1=NC1(CCCCC1)N2O`, the cell number change was -0.683%.
As for `CC(Cl)C(=O)NN=C(c1ccccc1)c1ccccc1` (stereo unspecified), the cell number change is 39.2%. In addition, under setting [2], the concentration at half-maximal activity (AC50) is 29.1 µM [rising, single point]. Besides, the concentration at half-maximal activity (AC50) under setting [1] is 32.6 µM [rising, single point].
Take `COc1ccccc1CNC(=O)COC(=O)C1CCN(S(=O)(=O)c2ccccc2)CC1`: the cell number change is -20.2%. Further, the concentration at half-maximal activity (AC50) under setting [1] is 0.231 µM [falling, full curve, poor fit].
As to `COc1ccc(NC(=O)c2sc(Cl)nc2-c2ccccc2)cc1`, the cell number change was -61.3%. Further, the AC50 under setting [2] is 29.1 µM [falling, single point]. The half-maximal activity concentration (AC50) under setting [1] was 29.1 µM [falling, single point].
For `Cc1cc(C)c(S(=O)(=O)N2CCCC(C(=O)NCc3ccncc3)C2)c(C)c1` (stereo unspecified), the cell number change turned out to be 19.7%. Besides, the AC50 under setting [2] was 0.058 µM [rising, full curve, poor fit].
Turning to `CC(C)(C)OC(=O)CNC(=O)c1nc[nH]c1C(=O)NCC(=O)OC(C)(C)C`, under setting [1], the AC50 was 6.51 µM [rising, single point].
For the compound `CC(C)(C)N/N=C/c1c(O)n(-c2ccc(Cl)cn2)c(=O)c2ccccc12`, the cell number change stood at 13.8%. The concentration at half-maximal activity (AC50) under setting [1] is 29.1 µM [rising, single point].
Take `CC[n+]1c(/C=C/N(C)c2ccccc2)oc2ccccc21`: the cell number change is -31.6%. Besides, the concentration at half-maximal activity (AC50) under setting [2] is 10.3 µM [falling, single point].
Turning to `Cc1cc(C)n(Cc2ccc(NC(=O)c3ccc(COc4ccccc4Br)cc3)cc2)n1`, the cell number change was found to be 63.5%. The AC50 under setting [2] is 23.1 µM [rising, partial curve]. The concentration at half-maximal activity (AC50) under setting [1] was 29.1 µM [falling, single point].
As to `Cc1cc(N2CCOCC2)nc(NCc2ccccc2)n1`, the cell number change was -32.1%. Moreover, the concentration at half-maximal activity (AC50) under setting [2] was 0.82 µM [falling, full curve, poor fit]. For the same compound, the half-maximal activity concentration (AC50) under setting [1] is 1.03 µM [falling, full curve].
Consider `Cc1cc(OCCOCCN(C)C)ccc1Cl`, for which the cell number change was -17.4%. The AC50 under setting [1] is 0.366 µM [falling, full curve, poor fit].
For the compound `Cc1cc2nc(NC3=NCN(Cc4ccc5c(c4)OCO5)CN3)nc(C)c2cc1C`, the cell number change was 15.1%. Under setting [1], the AC50 is 4.11 µM [rising, single point].

These data come from PubChem BioAssay AID2685 (National Center for Advancing Translational Sciences (NCATS), 2010).
